In publication doi:10.1101/2021.09.06.459189:
Results are given in words; binding and its absence hold for the method and conditions named. Some entries that bind do so weakly or less than the wild type. Tags and fused reporters may be left off the sequences shown. One block for each binder: values may come before it.

Amino acid sequences for entries named in this document (tags omitted).
UniProt P29311: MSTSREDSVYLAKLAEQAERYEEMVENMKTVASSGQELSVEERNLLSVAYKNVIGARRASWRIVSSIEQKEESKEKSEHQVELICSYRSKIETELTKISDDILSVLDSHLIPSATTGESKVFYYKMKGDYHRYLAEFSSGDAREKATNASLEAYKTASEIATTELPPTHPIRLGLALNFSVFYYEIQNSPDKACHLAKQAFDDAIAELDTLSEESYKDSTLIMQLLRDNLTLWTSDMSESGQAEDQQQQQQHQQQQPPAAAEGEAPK

Biological target: lexA-BMH1 (pLB518) (S. cerevisiae) (UniProt P29311)
Assay: two-hybrid

binding: binds
B1: GAL4AD-CDC5 (pLB491) (enzyme, UniProt P32562 1-705)
chain: MSLGPLKAINDKQLNTRSKLVHTPIKGNTADLVGKENHFKQTKRLDPNNDHHHQPAQKKKREKLSALCKTPPSLIKTRGKDYHRGHFLGEGGFARCFQIKDDSGEIFAAKTVAKASIKSEKTRKKLLSEIQIHKSMSHPNIVQFIDCFEDDSNVYILLEICPNGSLMELLKRRKVLTEPEVRFFTTQICGAIKYMHSRRVIHRDLKLGNIFFDSNYNLKIGDFGLAAVLANESERKYTICGTPNYIAPEVLMGKHSGHSFEVDIWSLGVMLYALLIGKPPFQARDVNTIYERIKCRDFSFPRDKPISDEGKILIRDILSLDPIERPSLTEIMDYVWFRGTFPPSIPSTVMSEAPNFEDIPEEQSLVNFKDCMEKSLLLESMSSDKIQRQKRDYISSIKSSIDKLEEYHQNRPFLPHSLSPGGTKQKYKEVVDIEAQRRLNDLAREARIRRAQQAVLRKELIATSTNVIKSEISLRILASECHLTLNGIVEAEAQYKMGGLPKSRLPKIKHPMIVTKWVDYSNKHGFSYQLSTEDIGVLFNNGTTVLRLADAEEFWYISYDDREGWVASHYLLSEKPRELSRHLEVVDFFAKYMKANLSRVSTFGREEYHKDDVFLRRYTRYKPFVMFELSDGTFQFNFKDHHKMAISDGGKLVTYISPSHESTTYPLVEVLKYGEIPGYPESNFREKLTLIKEGLKQKSTIVTVD

binding: binds
B2: fragment of NDT80 (amino acids 287-627), two-hybrid fusion (domain or fragment, UniProt P38830 287-627)
chain: TFHGENPGIPYDELALKNGSKGMFVYLQEMKTPPLIIRGRSPSNYASSQRITVRTPSSVNSSQNSTKRKMPSMAQPLNESCLNARPSKRRSKVALGAPNSGASISPIKSRQSTPMEASKENEDPFFRPNKRVETLEHIQNKLGALKNQCPDSSLKYPSSSSRGMEGCLEKEDLVYSSSFSVNMKQIELKPARSFEHENIFKVGSLAFKKINELPHENYDITIEKKSMEQNYLRPEIGSRSECKTSYGNELSLSNISFSILPNSAENFHLETALFPATEEDVPRTFSRILETGSFQNYYQKMDAENADRVYSKGVKLIASGTLPSGIFNREELFEEDSFYKY
